Measurements published in JPH07265077A.
Results are given in words; binding and its absence hold for the method and conditions named. Some binding calls cover weakened binding; strength is not graded here.

By UniProt entry, the sequences of proteins in these tests, tags left out. Residues count along the entry.
UniProt P03452, residues 18-565: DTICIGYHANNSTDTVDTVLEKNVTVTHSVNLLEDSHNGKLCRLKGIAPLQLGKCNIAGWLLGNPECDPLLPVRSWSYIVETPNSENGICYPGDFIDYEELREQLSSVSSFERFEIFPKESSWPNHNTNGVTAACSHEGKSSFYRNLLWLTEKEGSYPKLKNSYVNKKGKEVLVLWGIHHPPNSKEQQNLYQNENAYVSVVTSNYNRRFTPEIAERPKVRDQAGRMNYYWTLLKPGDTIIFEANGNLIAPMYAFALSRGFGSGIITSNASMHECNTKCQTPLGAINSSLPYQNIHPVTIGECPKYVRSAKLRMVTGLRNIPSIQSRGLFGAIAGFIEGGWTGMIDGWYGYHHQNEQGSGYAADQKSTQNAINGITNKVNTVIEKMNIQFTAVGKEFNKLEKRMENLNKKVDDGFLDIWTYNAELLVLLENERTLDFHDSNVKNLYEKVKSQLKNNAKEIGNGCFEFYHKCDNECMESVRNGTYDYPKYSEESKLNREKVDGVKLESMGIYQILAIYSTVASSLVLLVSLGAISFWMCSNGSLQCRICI

Target: Hemagglutinin (HA) of human influenza A virus A/PR/8/34 (H1N1サブタイプ) (human influenza A virus A/PR/8/34 (H1N1)) (UniProt P03452)
Experiment: summary of reference example A-3 (staining of infected MDCK cells)

B1: モノクローナル抗体C179 (monoclonal antibody C179) (antibody, V domains shown)
VH: EVKLVESGGGLVQPGGSLRLSCGTSGFTLTDDYMTWVRQPPGKALEWLGFIRDRANGYTTEYSASVKGRFTISRDNSQSIVYLQMNTLRVEDSATYYCARPKGYFPYAMDYWGQGT
VL: DIQMTQSPASQSASLGESVTITCLASQTIGTWLAWYQQKPGKSPQLLIYAATSLADGVPSRFSGSGSGTKFSFKISSLQAEDFVSYYCQQLYSTPWTF
binding: binds
